{
  "source": "patent US12391751B2",
  "about": "“Antibody against advanced glycation end products and use thereof” (Bloom Technology Corporation, priority 2018, dated 2025)",
  "experiment": "Radical measurement by ESR of GAL691 and known Glycer-AGEs (Example 19)",
  "assay_type": "physicochemical",
  "conditions": "10 mg/mL, PBS solution",
  "data": [
    {"molecule": "CC(=O)N[C@@H](CCCC[n+]1cc(O)cc(CO)c1)C(=O)O", "note": "[GLAP]", "values": [
      {"measurement": "ESR signal derived from a radical", "result": "no signal derived from a radical was able to be detected"}
    ]},
    {"molecule": "CC(=O)NC(CCCCNCc1cc(O)c[n+](CCCCC(NC(C)=O)C(=O)O)c1)C(=O)O", "note": "(centres unmarked) [Lys-hydroxy-triosidine]", "values": [
      {"measurement": "ESR signal derived from a radical", "result": "no signal derived from a radical was able to be detected"}
    ]}
  ]
}
